These are yes or no findings as the source states them, for the method shown. In cells and extracts the contact can be indirect. Some entries that bind do so weakly or less than the wild type.
Biological target: Procaspase-8 (human (endogenous in SKW 6.4)) (UniProt Q14790)
Experiment: co-IP; caspase-8-co-IP, antibody immobilised on Protein G sepharose beads (Pierce Co-Immunoprecipitation Kit); SKW 6.4 cells with or without CD95L stimulation; Western Blot

The chains behind the UniProt entries cited, without tags or fusion partners.
UniProt Q14790: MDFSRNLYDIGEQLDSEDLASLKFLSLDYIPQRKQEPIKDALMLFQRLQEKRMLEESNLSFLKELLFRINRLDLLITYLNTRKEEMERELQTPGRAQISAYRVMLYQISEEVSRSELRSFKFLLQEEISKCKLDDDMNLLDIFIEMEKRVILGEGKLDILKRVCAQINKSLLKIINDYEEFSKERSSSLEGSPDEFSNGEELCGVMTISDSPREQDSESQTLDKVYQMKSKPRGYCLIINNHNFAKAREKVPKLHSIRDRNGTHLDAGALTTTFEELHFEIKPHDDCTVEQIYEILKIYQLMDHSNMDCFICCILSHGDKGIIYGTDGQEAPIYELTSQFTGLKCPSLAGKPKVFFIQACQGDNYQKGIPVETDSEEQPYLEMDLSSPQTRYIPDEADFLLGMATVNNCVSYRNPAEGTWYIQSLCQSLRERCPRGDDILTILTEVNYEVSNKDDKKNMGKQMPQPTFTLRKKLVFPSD

B1: RIOK1 (protein, UniProt Q9BRS2 1-568)
chain: MDYRRLLMSRVVPGQFDDADSSDSENRDLKTVKEKDDILFEDLQDNVNENGEGEIEDEEEEGYDDDDDDWDWDEGVGKLAKGYVWNGGSNPQANRQTSDSSSAKMSTPADKVLRKFENKINLDKLNVTDSVINKVTEKSRQKEADMYRIKDKADRATVEQVLDPRTRMILFKMLTRGIITEINGCISTGKEANVYHASTANGESRAIKIYKTSILVFKDRDKYVSGEFRFRHGYCKGNPRKMVKTWAEKEMRNLIRLNTAEIPCPEPIMLRSHVLVMSFIGKDDMPAPLLKNVQLSESKARELYLQVIQYMRRMYQDARLVHADLSEFNMLYHGGGVYIIDVSQSVEHDHPHALEFLRKDCANVNDFFMRHSVAVMTVRELFEFVTDPSITHENMDAYLSKAMEIASQRTKEERSSQDHVDEEVFKRAYIPRTLNEVKNYERDMDIIMKLKEEDMAMNAQQDNILYQTVTGLKKDLSGVQKVPALLENQVEERTCSDSEDIGSSECSDTDSEEQGDHARPKKHTTDPDIDKKERKKMVKEAQREKRKNKIPKHVKKRKEKTAKTKKGK
binding: binds

Source: paper PMC11178496
